Laboratory results published in patent publication US20110236359A1 (priority 2007, published 2011).
For at least one compound, name, drawing or mass did not settle the structure.

Tested on: vancomycin-resistant Enterococcus faecium (VRE) clinical isolate
Assay: Agar well-diffusion assay against VRE clinical isolate
Format: cell-based
Conditions: concentration of 2 μg/ml; data not shown
Method: A clinical isolate of vancomycin-resistant Enterococcus faecium (VRE) was provided by the Centre Hospitalier de l'Université de Montréal microbiology laboratory (CHUM; Montreal, QC, Canada). […] The E. faecium strain was maintained in brain-heart infusion (BHI; Difco) for E. faecium containing 10% glycerol (w/v).
An agar well-diffusion assay was performed to verify the antimicrobial capacity of the neutralized cell-free supernatant (CFS) against a VRE clinical isolate. CFS was obtained as described before. A volume of 30 ml of cooled (45° C.) sterile BHI agar, containing 0.75% agar, was inoculated with 10^7 colony-forming units (CFU)/ml of VRE, poured into a […] standard Petri dishes and allowed to solidify for 30 minutes at room temperature. Wells of 6 mm in diameter were cut-out and […] of antimicrobial agent were placed into each well. All plates were then placed at 4° C. for 30 minutes, incubated at 37° C. for 24 h and examined for inhibition zones. Inhibition was scored positive if the width of the clearing zone around the well was 0.5 mm. Antibiotics were also evaluated with this method to ascertain the resistance of the VRE strain. Vancomycin and clindamycin (Sigma-Aldrich, Oakville, ON, Canada) were used in concentrations ranging from 0 to 800 μg/ml. […]

CCC[C@@H]1C[C@@H](C(=O)N[C@@H]([C@H]2O[C@H](SC)[C@H](O)[C@@H](O)[C@H]2O)[C@H](C)Cl)N(C)C1 [CLI, Clindamycin]
Sensitivity of the VRE clinical isolate (in words): very sensitive
